Test results from US20130302399A1.
No constants are given. Whether binding was seen depends on the method and setting. Some entries that bind do so weakly or less than the wild type.

The chains behind the UniProt entries cited, without tags or fusion partners. Where a name states a change or a piece, a line headed by the entry shows the natural chain unless it says otherwise.
UniProt Q8NBP7: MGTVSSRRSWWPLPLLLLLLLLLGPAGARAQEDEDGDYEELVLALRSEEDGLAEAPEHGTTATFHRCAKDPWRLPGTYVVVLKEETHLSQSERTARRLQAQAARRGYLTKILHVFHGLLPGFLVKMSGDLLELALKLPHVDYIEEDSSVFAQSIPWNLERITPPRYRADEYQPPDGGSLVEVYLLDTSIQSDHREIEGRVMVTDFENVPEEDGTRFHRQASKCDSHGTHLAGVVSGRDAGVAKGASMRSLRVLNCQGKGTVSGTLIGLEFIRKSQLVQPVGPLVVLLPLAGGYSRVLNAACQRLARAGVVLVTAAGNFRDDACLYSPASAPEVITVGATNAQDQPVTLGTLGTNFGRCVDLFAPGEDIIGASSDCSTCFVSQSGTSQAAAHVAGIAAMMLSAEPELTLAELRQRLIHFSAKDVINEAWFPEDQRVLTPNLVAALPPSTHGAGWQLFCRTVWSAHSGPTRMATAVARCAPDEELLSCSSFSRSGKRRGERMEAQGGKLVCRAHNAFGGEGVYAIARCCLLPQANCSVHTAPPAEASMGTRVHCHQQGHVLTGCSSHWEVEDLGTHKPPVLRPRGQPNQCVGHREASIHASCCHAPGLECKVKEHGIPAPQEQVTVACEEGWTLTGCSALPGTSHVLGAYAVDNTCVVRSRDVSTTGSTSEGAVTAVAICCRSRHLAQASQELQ

Target: human Proprotein Convertase Subtilisin-like/Kexin type 9 (human) (UniProt Q8NBP7)
Experiment: ELISA, biotinylated human PCSK9 on neutravidin plates, antibody dilution series

Binder	binding
Ab9 (antibody, human IgG1, kappa, N297A, V domains shown) VH: QSVEESGGRLVTPGTPLTLTCTVSGIDLSSYAMGWVRQAPGKGLEYIGIIVSYGPTYYASWAKGRFTISKTSTTVDLKITSPTAEDTATYFCARDLDANSSGYYGCFNIWGQGTLVTVSS VL: AVVLTQTPASVSAAVGGTVTIKCQASQSISTALAWYQQKPGQPPKLLIYAASPLASGVSSRFKSSGSGTEFTLTISDLECADAATYYCQSYYGSSNIAFGGGTELEILR	binds
Ab8 (antibody, human IgG1, kappa, N297A, V domains shown) VH: QEQLVESGGGLVQPEGSLTLTCTASGFSFTSDYYMCWVRQAPGKGLEWIGCISTGDGSTYYASWAKGRFTISKPSSTTVTLQMTRLTAADTATYFCARDRYYSYAYGAYVYASDLWGPGTLVTVSS VL: DIVMTQTPASVSEPVGGTVTINCQASESIRNYLSWYQQKPGQRPKLLIYGASTLASGVPSRFKGSGSGTDFTLTISDLECADAATYYCQSNYGISSRSYVNGFGGGTEVVVKR	binds
Ab4 (antibody, human IgG1, kappa, N297A, V domains shown) VH: QSVEESGGRLVTPGTPLTLTCTVSGIDLSSYAMIWVRQAPEKGLEYIGYIGGIDSTYYASWAKGRFTISKTSTTVDLKMTSPTTEDTATYFCGRWSGTSGYNTIWGPGTLVTVSS VL: DVVMTQTPASVEAAVGGTVTIKCQASQSIYSNLAWYQQKPGQPPKLLIYGASNLASGVSSRFKGSRSGTEYTLTISDLECADAATYYCQCTGGGDSGNTFGGGTEVVVKR	binds
Ab2 (antibody, human IgG1, kappa, N297A, V domains shown) VH: QSVEESGGRLVTPGTPLTLTCTVSGFSLSSYAMSWVRQAPGKGLEWIGIIDAIDNTYYASWAKGRFTISKTSTTVDLKMTSLTTGDTATYFCARASILGYSIATGFNIWGPGTLVTVSS VL: AYDMTQTPASVEVAVGGTVTIKCQASQSISSHLAWYQQKSGQPPKLLIYRASTLESGVSSRFKGSGSGTEFTLTISDLECADAATYYCQQGYGVSDVDNGFGGGTEVVVKR	binds
Ab5 (antibody, human IgG1, kappa, N297A, V domains shown) VH: QSVEESGGRLVTPGTPLTLTCTVSGFSLSSYAMSWVRQAPGKGLEWIGIISNSGTTYYASWAKGRFTISKTSTTVDLKITSPTTEDTATYFCARGIYWYWRVFNLWGPGTLVTVSS VL: AVLTQTPSPVSAAVGGTVTINCQASQSVYNNLLSWYQQKPGQPPKLLIYDASNLASGVPDRFSGSGSGTQFTLTISGVQCDDAATYYCLGGYDDDADNAFGGGTEVVVKR	binds
Ab1 (antibody, human IgG1, kappa, N297A, V domains shown) VH: QSVEESGGRLVTPGTPLTLTCTVSGFSLSSYWMTWVRQAPGKGLEYIGIISSSGSTYYATWAKGRFTISKTSSTTVDLEITSPTTEDTATYFCARDSAFSSGLEFNIWGPGTLVTVSS VL: AYDLTQTPASVEVAVGGTVTIKCQASQSVYSNWLSWYQQKPGQPPKLLIYDASDLASGVPSRFKGSGSGTQFTLTISGVQCDDAATYYCQQGQSSSDIDNTFGGGTEVVVKR	binds
Ab3 (antibody, human IgG1, kappa, N297A, V domains shown) VH: QSVEESGGRLVTPGGSLTLTCTASGFSLSSYYMSWVRQAPGKGLEWIGIIYPSGSTYYASWAKGRFTISKTSTTVDLKITSPTVEDTATYFCARGGAYATLNLWGPGTLVTVSS VL: AVLTQTPSPVSAAVGGTVTISCQSSQSVYHNNLLSWYQQKPGQPPKLLIYDASKLTSGVSSRFSGSGSGTQFTLTISGVQCDDAATYYCLGGYDDDADNGFGGGTEVVVKR	binds
Ab6 (antibody, human IgG1, kappa, N297A, V domains shown) VH: QEQLEESGGDLVKPEGSLTLTCTASGFSFSSNYWICWVRQAPGKGLEWIGCIRDGGGTYYASWAKGRLTISMTSSTTVTLQLNSLTAADTATYFCASDINDGWLGQFNLWGPGTLVTVSS VL: DIVMTQTPASVEVAVGGTVTIKCQASQSISAYLAWYQQKPGQPPKLLIYRAYTLASGVPSRFKGSGSGTQFTLTISDLECADAATYYCQSYYSVTTNTYGNTFGGGTEVVVKR	binds
Ab10 (antibody, human IgG1, kappa, N297A, V domains shown) VH: QEQLEESGGDLVKPEGSLTLTCTASGFSFSSSYWICWVRQAPGKGLEWIACIRAGGGNYYANWAKGRFTISRTSSTTVTLQMTSLTAADTATYFCASDINDGWLGQFNLWGPGTLVTVSS VL: NIVMTQTPASVEAAVGGTVTIKCQASQSISNYLAWYQQKPGQPPKLLIYRTSTLASGVPSRFKGSGSGTQFTLTISDLECADAATYYCQSYYSVTTVAYGNTFGGGTEVVVKR	binds

Continued, values first:

binding	Binder
binds	Ab21 (antibody, human IgG1, kappa, N297A, V domains shown) VH: QSVEESGGRLVTPGTPLTLTCTVSGFSLSSYAMNWVRQAPGKGLEWIGAIRSSGATFFASWVNGRFTISKTSTTVDLKITSPTPEDTATYFCARDTNDGWYINRLDLWGPGTLVTVSS VL: AAVLTQTPSPVSAAVGGTVSISCQSSKSVYSNYLSWFQQKPGQPPKFLIYKASTLASGVPSRFKGSGSGTQFTLTISDVQCDDAATYYCAGGDTNISDNAFGGGTEVVVKR
binds	Ab13 (antibody, human IgG1, kappa, N297A, V domains shown) VH: QSVEESGGRLVTPGTPLTLTCTVSGIDLSTYGVGWVRQAPGKGLEYIGIISSSGSTYYASWAKGRFTISKTSSTTVDLKMTSLTTEDTATYFCARDWSSTTGYYGYFNMWGPGTLVTVSS VL: AFELTQTPSPVSAAVGGTVTIKCQASQSISTALAWYQQKPGQPPKLLIYGASNLESGVPSRFSGSGSGTQFTLTISDLECADAAIYYCQSSYGSSTLAFGGGTEVVVKR
binds	Ab23 (antibody, human IgG1, kappa, N297A, V domains shown) VH: QSLEESGGDLVKPGASLTLTCKASGFSFSSGYYMCWVRQAPGKGLEWIACIYAGSGGSTFFANWAKGRFTISKTSSTTVTLQMTSLTAADTATYFCARDGGYAGYGYAFFNLWGPGTLVTVSS VL: DVVMTQTPASVSEPVGGTVTIKCQASERIYSGLAWYQQKPGQPPKLLIYGASTLASGVPSRFKGSGSGTDFTLTISDLECDDAAIYYCQCTYYGSSYPNVFGGGTEVVVKR
binds	Ab24 (antibody, human IgG1, kappa, N297A, V domains shown) VH: QSLEESGGDLVKPGASLTLTCKASGFSFSSGYYMCWVRQAPGKGLEWIACIYAGSGGSTFFANWAKGRFTISKTSSTTVTLQMTSLTAADTATYFCARDGGYAGYGYAFFNLWGPGTLVTVSS VL: DVVMTQTPASVSEPVGGTVTIKCQASERIYSGLAWYQQKPGQPPKLLIYGASTLASGVPSRFKGSGSGTDFTLTISDLECDDAAIYYCQATYYGSSYPNVFGGGTEVVVKR
binds	Ab19 (antibody, human IgG1, kappa, N297A, V domains shown) VH: EVQLVESGGGLVQPGGSLRLSCAASGIDLSSYAMGWVRQAPGKGLEYIGIIVSYGPTYYASWAKGRFTISRDNSKNTVYLQMNSLRAEDTATYFCARDLDAQSSGYYGAFNIWGQGTLVTVSS VL: DIQMTQSPSTLSASVGDRVTITCQASQSISTALAWYQQKPGKAPKLLIYAASPLASGVPSRFSGSGSGTEFTLTISSLQPDDFATYYCQSYYGSSNIAFGGGTKVEIKR
binds	Ab20 (antibody, human IgG1, kappa, N297A, V domains shown) VH: EVQLVESGGGLVQPGGSLRLSCAASGIDLSSYAMGWVRQAPGKGLEYIGIIVSYGPTYYASWAKGRFTISRDNSKSTVYLQMNSLRAEDTATYFCARDLDAQSSGYYGAFNIWGQGTLVTVSS VL: DIQMTQSPSTLSASVGDRVTITCQASQSISTALAWYQQKPGKAPKLLIYAASPLASGVPSRFSGSGSGTEFTLTISSLQPDDFATYYCQSYYGSSNIAFGGGTKVEIKR
binds	Ab22 (antibody, human IgG1, kappa, N297A, V domains shown) VH: EVQLVESGGGLVQPGGSLRLSCAASGFSLSSYAMNWVRQAPGKGLEWIGAIRSSGATFFASSVNGRFTISRDNSKNTVYLQMNSLRAEDTAVYYCARDTNDGWYINRLDLWGQGTLVTVSS VL: AVLTQSPSTLSASVGDRVTITCQSSKSVYSNYLSWFQQKPGKAPKFLIYKASTLASGVPSRFSGSGSGTEFTLTISSLQPDDFATYYCAGGDTNIADNAFGGGTKVEIKR
binds	Ab17 (antibody, human IgG1, kappa, N297A, V domains shown) VH: QEQLEESGGDLVKPEGSLTLTCTASGFSFSSSYWICWVRQAPGKGLEWIGCIRPGSADYYASWAKGRFTISRASSSTVTLQMTSLTAADTATYFCASDINDGWLGQFNLWGPGTLVTVSS VL: DVVMTQTPASVEAAVGGTVTIKCQASLSIADYLAWYLQKPGQPPKLLIYRASTLASGVPSRFKGSGSGTEYTLTISDLECADAATYYCQSYYSVTTNTYGNTFGGGTEVVVKR
binds	Ab16 (antibody, human IgG1, kappa, N297A, V domains shown) VH: QEQLVESGGGLVQPEGSLTLTCTASGFSFSSDYWICWVRQAPGKGLEWIGCIRDGGGSYYANWAKGRLTISMTSSTTVGLKMTSLTAADTATYFCASDINDGWLGQFNLWGPGTLVTVSS VL: DIVMTQTPASVEAAVGGTVTIKCQASQSISSYLAWYQQKPGQPPKLLIYRASTLASGVPSRFSGSGSGTEFTLTISDLECADAATYYCQSYYSVTTVTYGNTFGGGTEVVVKR
binds	Ab14 (antibody, human IgG1, kappa, N297A, V domains shown) VH: QEQLEESGGDLVKPEGSLTLTCTGSGFSFSSIAYMCWIRQAPGKGLEWIGCIGSGSGNTYYANWAKGRFTISKSSSTTVTLQMTSLTAADTATYFCASDTNNGWLGQFNLWGQGTLVTVSS VL: DIVMTQTPASVSAAVGGTVTINCQASQSISSYLAWYQQKPGQPPKLLIYRASTLASGVPSRFKGSGSGTQFTLTISDLECADAATYYCQGYYSVTTNTYGNTFGGGTEVVVKR
binds	Ab15 (antibody, human IgG1, kappa, N297A, V domains shown) VH: QEQLEESGGDLVKPEGSLTLTCTASGFSFSSSYWICWVRQAPGKGLEWIACIDAGNSGSTYYASWAKGRFTISKASSTTVTLQMTSLTAADTATYFCASDLNDGWLGQFNLWGPGTLVTVSS VL: NIVMTQTPSPVSGAVGGTVTIKCQASQSISDYLAWYQQKPGQPPKLLIYRASTLASGVPSRFRGSGSGTEYTLTITDLECADAATYYCQSYYSVTTNTYGNTFGGGTEVVVKR
